Screen size: about 53,000 sequences; about 3,700 (7%) were called active.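 The calls were made as follows: active = gene knockdowns whose robust z-score for IL-1 alpha signal is at least 2 or at most -2, so actives lie on both sides; inactive = the rest.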 This is one part of the list.
Test: Components of the Cytosolic LPS Sensing Pathway: Gene Identification via Genome-wide siRNA Screen;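 also: robust z of the log signal after scaling to non-targeting control siRNA wells of the plate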
Settings: RAW264.7 macrophages, IL-1a HTRF, actives lie on both sides, screened at 100 nM (by protocol), cells primed 5 h with Pam3CSK4 first
Procedure, shortened: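 Three distinct siRNAs per gene were tested singly at 100 nM in RAW264.7 macrophages. Following Pam3CSK4 priming and 24 hour LipidA transfection, IL-1a secretion was read by HTRF.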
In the case of “CCCGCUCAAGAUCCUGUUUTT against 2310011J03Rik”, the z-score is reported as inactive: -0.231. For GGCCCUAGAUGAGCACAAATT against Kcnh3, the z-score was active: 2.48. For GGAAUUGGUUCAGAAAUAUTT against Rtn4, the z-score was active: 3.09. With GGUUUACACGGUGGUAGAUTT against Ap2s1 the z-score was inactive: 1.89. In the case of GGCUGCUGAUGAAAUGACUTT against Guca2b, the z-score is reported as inactive: 0.185. In the case of GGAUCUGUACACAGUUAGUTT against Olfr1123, the z-score is reported as inactive: -1.21. For GGUAUUUCCGGAUCUUCAUTT against Smim7, the z-score was inactive: 0.0136. For GCCGAGUGAUAACAGUAGATT against Ndufa10, the z-score was inactive: 1.35. For GGAUUAUCACUGCCUCUUATT against Olfr1446, the z-score was inactive: 1.28. With GGAGUUCAAUCCAACAAAATT against Atxn2l the z-score was inactive: -1.4. For CCUGACGAUUGAGUAUCAUTT against Tubgcp4, the z-score was inactive: -0.267. With GGUCAGUGACAUUAUCAAUTT against Vmn1r237 the z-score was inactive: 1.84. For GGAGAACACCAAAAAGGGCTT against Uncx, the z-score was inactive: -1.26. For CCCAAGUGAAAGUAAUGUCTT against Tardbp, the z-score was inactive: -2. With GUCUUAUACACGUGUGGACTT against Cklf the z-score was inactive: -0.198. For GGGUGUACAGAGGAUCCGATT against Atp2a3, the z-score was inactive: 0.187. With GCUUAAAGAACUCUAUUCATT against Oaz3 the z-score was inactive: 1.02. With GGACAUAGUGAUGCUUCAGTT against Ubr2 the z-score was inactive: -1.18. For GCUGUGAAGACGGACAAUATT against Pelo, the z-score was inactive: -1.58. In the case of GGCAGAUGUCUGAUUUGGUTT against Zfp553, the z-score is reported as inactive: -0.507. With GGUGGUCAAGAUCUUGGUGTT against Mcoln1 the z-score was inactive: -0.982. For CGUUUUCCACAAAGCAAAATT against Olfr1465, the z-score was inactive: 0.543. For GGAGAAUAACAAGAUAGUCTT against Pcdhgb8, the z-score was inactive: 0.0624. For GGAUGAACUAUACCAUGGCTT against Tmem132c, the z-score was inactive: 1.07. For GGUGCUCAUCGACUGGAUCTT against Parva, the z-score was inactive: 0.102. For GCUUGCUCCGGUAACAGCATT against Gata6, the z-score was inactive: -0.896. In the case of GCAUCGCCAUCUAUAACUCTT against Slc25a48, the z-score is reported as inactive: 0.113. With GGCCUUUGAGAAGAACAUUTT against Copz1 the z-score was active: -2.16. In the case of GGUUGUGUUUACCAUGAAGTT against Rps6ka6, the z-score is reported as inactive: 0.684. For GGAAAGAUGCCGGAAAAUCTT against Ppp1r14a, the z-score was inactive: -0.167. With GCUCCGAAUUUUGCUGAUCTT against Galc the z-score was inactive: 1.61. For GCCAUAGGCUCAUCUUUACTT against Ankib1, the z-score was inactive: -1.61. For GGAGCUGGAAGAGGUGUUUTT against Fam117a, the z-score was inactive: 0.596. With CGCAGACAGAGACAACCUGTT against Casp6 the z-score was inactive: -0.73. With GCACCAAGGUCCUACUUGATT against Lypd10 the z-score was inactive: 0.19. With CGCAUGUGAUUCCUUAUGATT against Sqor the z-score was inactive: -0.735. With CGAUUGUCGGGUUUUGUUUTT against Nutf2 the z-score was active: -2.53. For CCUAGAGAGUUAGAAAUAATT against Clpx, the z-score was inactive: 1.57. For GGCCGAAGCAUCUUCAAGATT against Wdr24, the z-score was inactive: 1.88. For GCUUAGUGAGGAGAUACAATT against Champ1, the z-score was inactive: 0.837. In the case of GGGUAGUUAUACAAACUAATT against Snapc5, the z-score is reported as inactive: 1.53. In the case of CCUGUGAGUACCAGCCAACTT against Vstm2l, the z-score is reported as inactive: -0.636. With GGAUUUAGGUAUGUUUCACTT against Ankrd55 the z-score was inactive: -1. With GCCAAUGAGCAGACUGUAUTT against Sycp1 the z-score was inactive: -0.193. In the case of GGAUUCGGACAAAACUACUTT against Mettl16, the z-score is reported as inactive: 0.255. For GGUACAAAGUCCAUUCUUGTT against Nlrp10, the z-score was inactive: 1.25. In the case of GGACAGAUGGAAUAGUGAATT against Klra10, the z-score is reported as inactive: -0.657. With CCAAGAUCCCGUUAAACAATT against Defb3 the z-score was inactive: 0.645. For “GGAAGAGCUGAAACAUUUGTT against E230025N22Rik”, the z-score was inactive: -1.22. For GGAGUUCCCGCUUACUCUGTT against She, the z-score was inactive: -0.333. With CCUGCUAAUGUUUGUAAGUTT against Sowahc the z-score was inactive: 1.37. In the case of CGGGCUGAUUCAACUGGUGTT against Kif1b, the z-score is reported as active: 3.64. With GGCAAAGGUGCAAGAUACATT against Nadsyn1 the z-score was inactive: 0.409. With GGGUUGGCUGAGGUAAUGGTT against Gcn1 the z-score was inactive: 0.174. With GGUGGUGAGCAUCUACUAUTT against Alox5 the z-score was inactive: 0.565. With CGCUGGACUGGAAUACUCATT against Zfp1 the z-score was inactive: -0.692. For GGAAAUGAACAGUAAACCATT against Golph3l, the z-score was inactive: 1.19. With GGUAGACUGUGAAAAUGACTT against Ldlr the z-score was inactive: -0.6. For GGUGAAGUCAUCACUAUUGTT against Trpm2, the z-score was inactive: 0.883. In the case of GCGACAAAUCGCGCUAUGATT against Grm3, the z-score is reported as inactive: -1.3. For GCAGUGGUUUGAUCUAUUUTT against Cul5, the z-score was inactive: 0.843. In the case of GGGAGAGAUGUCAUUGCACTT against Eif4a3, the z-score is reported as inactive: -1.9. For GGAGCCAGUCCAAAUUGCATT against Il13ra1, the z-score was inactive: 0.561. With CCAAGAUGGGUUCAUCUCUTT against Cabp5 the z-score was active: 2.39. For GAGCUGGCAAUCUUUCUCUTT against Olfr1156, the z-score was inactive: 0.337. For GGAUUUCCUGUUCUUUCUATT against Prmt5, the z-score was inactive: 0.168. With GGUCCCUAUGUUAUUGAUUTT against Spock2 the z-score was inactive: 1.11. In the case of GGUUGUGUUCAUGGAGAAGTT against Nfatc2, the z-score is reported as inactive: -1.23. For CUGCAAACAGAGAGCAGCGTT against Ikbip, the z-score was inactive: 0.0294. In the case of GGUCUCGGGUCUGAUUUAATT against Foxa2, the z-score is reported as inactive: 1.95. In the case of GGAGACAGAAAUGAGUUCATT against Slc34a2, the z-score is reported as inactive: -0.808. With CACCGUAAUAAUCACACUATT against Zfp667 the z-score was inactive: -0.854. With GCAACAUGGCCCUUACCAUTT against Plcb2 the z-score was inactive: 0.721. With GGUGUUUACAGUUGAGAGUTT against Prmt7 the z-score was inactive: 0.678. In the case of GGUCUUCCGGGAGAUCAUUTT against Inmt, the z-score is reported as inactive: 0.471. With GGUUAUAGAGCGAGCAGCUTT against Mak16 the z-score was inactive: -1.11. In the case of GCGGGCAAUGCCUUAAAAGTT against Parl, the z-score is reported as inactive: 0.257. For GGCACUUCUUAAUCCCACATT against Nfe2, the z-score was active: -2.41. With GGGUGUAUUGAGAAUCAACTT against Dis3l2 the z-score was inactive: 0.489. For GCUGAUGUCUGAGGGUGUATT against Tex22, the z-score was inactive: 0.58. For CCCUAAAUGCUUCGUAUGCTT against Ablim3, the z-score was inactive: -1.2. With CCCGGGUCUUUGAUAUCUUTT against Evi5l the z-score was active: 2.03. For GGGAAGUUAAUUGAGAUCCTT against Nomo1, the z-score was inactive: 0.393. In the case of GGAUGCUCUGGUUACAUUATT against Mreg, the z-score is reported as inactive: 0.463. For GGAGACAUUCCUGAAAGCUTT against Ankrd2, the z-score was active: -2.09. In the case of GCCUAUACUGAUUUAUGAUTT against Tomm7, the z-score is reported as inactive: -1.73. In the case of AGUUUAGGUCUACAGAUACTT against Ggnbp1, the z-score is reported as inactive: 0.254. With GGAUUCUUGGAGCUCAUUATT against Stag3 the z-score was active: -2.46. For GGAAAUGACCAGUCUGUUUTT against Zmym1, the z-score was inactive: -0.47. With GGAGAGGCAUCUUUUCCUATT against Arhgap20 the z-score was inactive: -0.338. In the case of GGAAGUUUAAAGUCUAGAATT against Adcy7, the z-score is reported as inactive: 0.477. In the case of GGAAUCUAGACCUAACUUCTT against Zfp444, the z-score is reported as inactive: -0.693. With GGCAAUAAAGUGUAUUGGCTT against Cd3e the z-score was inactive: -0.644. For GGCCUACGUGCUAAACAUCTT against Atp1b1, the z-score was inactive: 1.77. With GGACUUUUCUGAUGAAACATT against Map3k4 the z-score was inactive: -0.0165. In the case of GGCAUAUGAUGAUAAGUAATT against P2ry14, the z-score is reported as inactive: 0.691. In the case of CGAUGAUCCUUACCUCAUATT against Ptcd3, the z-score is reported as inactive: 0.978. For GGUGGUGUCGGAUUUGAUATT against Rtcb, the z-score was inactive: -0.109. For CUGAUCCUUCAAUUAACAUTT against Olfr202, the z-score was inactive: 0.0318. In the case of GGUCAUUAAGGACUCGAAGTT against Gfap, the z-score is reported as inactive: 0.953. For GGUGUGGUGGGUUUCUCAUTT against Mcpt2, the z-score was inactive: -0.126. For GGUAUCCUCUCUUGUCUUGTT against Clec9a, the z-score was inactive: -0.0393. In the case of GGACUUAUGAGCAAAUAAATT against Rprd1a, the z-score is reported as inactive: 0.494. With GCUUCAGAACACGACGACCTT against Selenom the z-score was inactive: 1.88. With CCCUGUGAUCACUACAUGUTT against Traf7 the z-score was inactive: -0.389. For GGAUGAAUGUCACAACUUCTT against Sema6a, the z-score was inactive: 0.658. In the case of GCCAUGUCUUCCUUCUCCATT against Sprr2g, the z-score is reported as inactive: -0.464.

— PubChem BioAssay AID1508600 (Functional Genomics Laboratory (NCATS/FGL), 2020)
